# Data published in PubChem BioAssay AID588499 (NMMLSC, 2011).
# Among all 360,000 compounds or so, about 610 (0.17%) were called active. The inconclusive results got no clear call from the source; some entries with a clear call stand among them for comparison. Rule as the data show it: active = inhibition above about 30%; inconclusive = no clear call, values can overlap the other calls; inactive = below that.
# Tested on: Botulinum neurotoxin type A light chain protease (Clostridium botulinum A str. ATCC 3502)
# Assay: blockers of BoNT/A LC substrate cleavage – biochemical, flow cytometry, MLPCN library, primary screen (AID 588499); also: plate controls were buffer without enzyme for full effect and enzyme alone for no effect
# Settings: multiplex microsphere protease substrate cleavage, at 10 µM, stronger effect = higher value
row,SMILES,inhibition
1,Brc1ccc(-c2cn3c(n2)CCc2ccc4cccnc4c2-3)cc1,inactive: 2%
2,O=C(Nc1ccc2c(c1)OCO2)C1Cc2c(-c3cccnc3)ccnc2O1 (configuration not stated),inactive: -0.6%
3,Cc1cccc(NC(=O)CSc2nnc(-c3cnccn3)n2Cc2ccco2)c1,inconclusive: -2%
4,Cc1ccc2cc(C)c(SCC(=O)NCc3ccco3)nc2c1,inactive: -1.7%
5,CCOC(=O)c1cc2sccc2n1CC(=O)N1CCCc2ccccc21,inconclusive: -1.8%
6,O=C1CC(SCCO)C(=O)N1c1ccccc1 (configuration not stated),inactive: -1%
7,Cc1ccc(S(=O)(=O)/N=S(/c2ccccc2)C(C)C)cc1 (configuration not stated),inconclusive: 7%
8,CN(C)/C=C/c1c(C#N)c(=O)ncn1Cc1ccccc1,inconclusive: -0.8%
9,N#Cc1cc2ccccc2nc1SCc1cccnc1,inconclusive: 8.1%
10,O=c1ccccn1Cc1c(Cl)cccc1Cl,inconclusive: -0.3%
11,Cc1cc(N/N=C/c2ccccc2F)nc(NCc2ccccc2)n1,inconclusive: -1.4%
12,COc1ccc(N(CC(=O)Nc2cccc(SC)c2)S(C)(=O)=O)cc1Cl,inactive: -1%
13,COC(=O)Nc1sc2c(c1C(=O)NCc1ccco1)CCC2,inconclusive: 0%
14,CCOc1ccc2[nH]c3c(NCCO)ncnc3c2c1,inactive: -1.3%
15,O=C(OCC(=O)N1CCOCC1)c1cc(-c2ccccc2)nc2ccccc12,inactive: 0.3%
16,Cc1ccc(N(CCC#N)C(=O)COC(=O)C2=COCCO2)cc1,inconclusive: 8.9%
17,O=C(COc1ccc(C2SCCS2)cc1)Nc1ccc(Cl)cc1,inconclusive: -22.4%
18,Nc1c(C(=O)NCCN2CCOCC2)c2nc3ccccc3nc2n1-c1ccc2c(c1)OCO2,inconclusive: 7.6%
19,COC(=O)C1CCN(C(=O)c2ccc(Cl)c(S(=O)(=O)NCc3cccnc3)c2)CC1,inconclusive: -1.7%
20,CC(C)Oc1ccc(C(=O)NC2(C(F)(F)F)N=C3SCCN3C2=O)cc1 (configuration not stated),inconclusive: -0.8%
21,O=C(O)c1cc([N+](=O)[O-])ccc1N1CCCCC1,inactive: -0.1%
22,Cc1occc1-c1nc(-c2ccncc2)no1,inactive: 3.3%
23,Cc1nn(-c2ccccc2)c(C)c1/C=N/NC(=O)c1cnccn1,inconclusive: -35.3%

row,SMILES,inhibition
1,CCCN(CCC)S(=O)(=O)c1ccc(NC(=O)COc2ccccc2)cc1,inconclusive: 1.4%
2,COc1ccc(OC)c2sc(N3CCN(C(=O)c4ccc([N+](=O)[O-])s4)CC3)nc12,inconclusive: 16.7%
3,O=C(Nc1ccc2c(c1)OCCO2)c1cccc(S(=O)(=O)N2CCCCC2)c1,inconclusive: -1.4%
4,CCCCNC(=O)OCCNC(=O)NC,inconclusive: 5.8%
5,N#Cc1ccc2sn(-c3ccccc3)c(=O)c2c1,active: 32.7%
6,COc1ccccc1CNc1nc(Nc2ccccc2-n2cccn2)c2sccc2n1,inactive: -0.1%
7,CCOc1ccccc1C(=O)Nc1cc(Cl)ccc1O,inactive: -0.2%
8,CCc1cc(C(=O)OC)c(NC(=O)CC2NCCNC2=O)s1 (configuration not stated),inconclusive: 2.5%
9,CCN(Cc1ccccc1)C1CCN(Cc2ccccc2)CC1,inconclusive: -0.7%
10,CC(=O)NNC(=O)c1csc(-c2csc(C)n2)n1,inconclusive: 24.1%
11,COc1ccc(C2/C=C\CC(NS(=O)(=O)c3ccc(C)cc3)CC(=O)N2Cc2ccccc2F)cc1 (configuration not stated),inactive: -0.6%
12,COc1ccc2nc(NC(=O)CSC(C)C(=O)Nc3cc(C)on3)sc2c1 (configuration not stated),active: 84.8%
13,C/C(=N/NS(=O)(=O)c1ccc(C)cc1C)c1c[nH]c2ccccc12,inactive: -3.9%
14,O=C(CSc1nc2ccccc2o1)Nc1ccccc1,inconclusive: 1.6%
15,O=C(NNc1ccc(F)cc1F)c1c(F)cccc1Cl,inconclusive: 1.2%
16,Cn1ncc2c(c(SCc3ccc(Cl)cc3Cl)nn2C)c1=O,inconclusive: -52.1%
17,O=C(c1ccccc1)N1CCC2(CC1)OCCO2,inactive: -0.1%
18,CCOc1ccc(Nc2nc(Cc3nnc(SCC(=O)NCC4CCCO4)n3C)cs2)cc1 (configuration not stated),inconclusive: -0.3%
19,COCCn1c(SCC(=O)N(C(C)C)C(C)C)nnc1-c1cc2ccccc2cc1O,inconclusive: -3%
20,Cc1ccc(-c2nc3sc4c(c3c(=O)n2N)CCCC4)cc1,inconclusive: 7.4%
21,C(/C=C/c1ccco1)=N/N1CCN(c2ccccc2)CC1,inactive: 0.1%
22,COc1cc(C(=O)OCC(=O)Nc2ccc(N3CCOCC3)cc2)ccc1OCC(C)C,inconclusive: -0.2%
23,O=C(O)c1ccc(S(=O)(=O)N2CCC(c3nc(-c4ccccc4Cl)no3)CC2)cc1,inconclusive: -0.2%

row,SMILES,inhibition
1,O=C1[C@@H]2CSCN2C(=O)CN1Cc1ccc(F)cc1,inconclusive: -55.3%
2,Cc1cccn2c(=O)c3cc(C#N)c(=NC(=O)c4ccncc4)n(CCCOC(C)C)c3nc12,inactive: 0%
3,Cc1cccc(Nc2nnc(SCC(=O)c3c(N)n(C4CC4)c(=O)[nH]c3=O)s2)c1,inactive: 2.8%
4,CCOC(=O)C1(C)CCCN1C(=O)c1cncc(Br)c1 (configuration not stated),inactive: -0.6%
5,Cc1[nH]c(=O)[nH]c(=O)c1C=CC(=O)NC(CO)CS(=O)Cc1ccccc1 (configuration not stated),inactive: -0.1%
6,CCN1CCN(c2ccc(S(=O)(=O)N3CCOCC3)cc2NC(=O)c2ccc(C(F)(F)F)cc2)CC1,inactive: 0.1%
7,Cc1cc(C)cc(C(=O)Oc2coc(CSc3nnc(NC(=O)C4CC4)s3)cc2=O)c1,active: 38.2%
8,COc1ccccc1NC(=O)CSc1nnc(Cn2c(=O)sc3ccccc32)n1C,inactive: 0.1%
9,COc1ccc(-c2nc3ccc(N4CCN(C)CC4)cc3c(=O)[nH]2)cc1,inactive: -0.2%
10,Cc1onc(-c2ccc(Cl)cc2Cl)c1-c1csc(COc2ccccc2)n1,inconclusive: 2%
11,Cc1ccc(NC(=O)C(C)SCc2nc3sc4c(c3c(=O)[nH]2)CCCC4)nc1 (configuration not stated),inconclusive: -2.5%
12,CC1CCc2c(sc3nc4n(c(=O)c23)CCS4)C1 (configuration not stated),active: 52.4%
13,Cc1ccc(NC(=S)N2CCCC(c3ccccc3)=N2)cc1,inconclusive: 19%
14,CCOc1ccc2[nH]c(=O)c(CN(CC3COCCO3)C(=O)c3ccc(C)cc3)cc2c1 (configuration not stated),inactive: -0.7%
15,Cc1ccc(N2C(=O)C(Cl)=C(N3CCCCCC3)C2=O)c(C)c1,inactive: 2.6%
16,COc1ccc(C2Nc3ccccc3C(=O)N2NS(=O)(=O)c2ccccc2)cc1OC (configuration not stated),inactive: -0.1%
17,CCOC(=O)N1CCN(C(=O)CCCn2c(=S)[nH]c3ccc(Br)cc3c2=O)CC1,inconclusive: -1.9%
18,Cc1cccc(OCC(=O)N2CCC3(CC2)CC(=O)c2ccccc2O3)c1,inconclusive: -1.5%
19,O=[N+]([O-])c1cccc(-c2cc(C(F)(F)F)n3nc(-c4ccccc4)cc3n2)c1,inconclusive: -29.8%
20,Cc1cc(Cl)ccc1OCc1nnc(-c2ccccc2C)o1,inconclusive: 0.6%
21,O=C(Cc1ccccc1)Nc1ccc(N2CCN(Cc3ccccc3F)CC2)cc1,inconclusive: 12.3%
22,COc1cccc(C(=O)N(C)Cc2c(C)nn(C3CCS(=O)(=O)C3)c2C)c1 (configuration not stated),inactive: -0.1%
23,COc1cccc2[nH]c3c(N4CCC5(CC4)OCCO5)ncnc3c12,inconclusive: 11.4%

# Single values from the list.
# Cc1ccc(NC(=S)N2CCCC(c3ccccc3)=N2)cc1 – inhibition: inconclusive: 19%
# CCOC(=O)c1cc2sccc2n1CC(=O)N1CCCc2ccccc21 – inhibition: inconclusive: -1.8%
# Cn1ncc2c(c(SCc3ccc(Cl)cc3Cl)nn2C)c1=O – inhibition: inconclusive: -52.1%

# More entries

row,SMILES,inhibition
1,CNS(=O)(=O)c1cccc(C(=O)Nc2cccnc2)c1,inactive: 0%
2,Cc1cccc(C)c1OCc1nnc2c3cnn(C)c3ncn12,inconclusive: 2.7%
3,COCCNC(=S)N/N=C(\C)CCc1ccc2c(c1)OCO2,inactive: -1.1%
4,CCOc1ccc(NC(=O)CSc2nc3ccccc3c(=O)n2CCCC(=O)NCC2CCCO2)cc1 (configuration not stated),inactive: -1%
5,NC(=O)c1cc(NC(=O)CCNS(=O)(=O)c2cccc(C(F)(F)F)c2)cc(C(N)=O)c1,inactive: -0.8%
6,CCOC(=O)C1=NNC(C(=O)c2ccccc2)C1c1ccc(C)cc1 (configuration not stated),inconclusive: -26%
7,COCC(=O)NCCc1ccc(S(N)(=O)=O)cc1,inactive: -0.6%
8,CCN(CC(=O)Nc1c(F)cccc1F)C(=O)c1cc([N+](=O)[O-])ccc1N1CCOCC1,inconclusive: -11.9%
9,CS(=O)(=NS(=O)(=O)c1ccc(Cl)cc1)c1ccccc1 (configuration not stated),inconclusive: -8.5%
10,Cc1ccc2nc(SCC(=O)Nc3cc(C)on3)nc(=O)n2c1,inactive: 1.4%
11,COc1ccc(C(CNC(=O)c2cccc(S(=O)(=O)Nc3ccc(C)cc3)c2)N2CCOCC2)cc1 (configuration not stated),inconclusive: 0%
12,COc1ccc(C(=O)COC(=O)Cn2[nH]c(=O)c3ccccc3c2=O)c(OC)c1,inconclusive: 1.9%
14,C/C(N)=C(/C#N)C(=O)CSc1nc2cc(Cl)ccc2s1,inconclusive: -3.3%
15,COc1ccc(C)cc1NC(=O)c1cc2ccccc2o1,inconclusive: -3.9%
16,CCCCOc1ccc(CN(C)c2ncnc(N)n2)cc1,inconclusive: -0.1%
17,COc1ccccc1C(=O)N(CN1CCCC1=O)c1cccc(Cl)c1,inactive: 0.7%
18,Fc1ccc2c(c1)C(c1ccncc1)=NNC(c1cccnc1)=N2,inconclusive: -5.7%
19,Cc1c(NC(=O)c2ccco2)c(=O)n(-c2ccccc2)n1C,inactive: 2%
20,CN(C)C=Nc1ccc2nc3c(cc2c1)[nH]c1ccccc13,inactive: -4.2%
21,COc1cc2c(cc1OC)CN(C(=O)c1cc(C3CC3)nn1-c1ccccc1)CC2,inactive: 0%
22,CC(C)(C)c1nc(NCCN2CCOCC2)c2nnn(Cc3ccccc3Cl)c2n1,inactive: -0.5%
23,CCOC(=O)C1=CN(Cc2ccco2)S(=O)(=O)NC1CC (configuration not stated),inactive: 0%
